# Results from the supplement of paper PMC12067093, “Discovery and optimisation of a covalent ligand for TRIM25 and its application to targeted protein ubiquitination” (Chemical Science, 2025).
# Chains of the proteins cited; added tags and fusions are not shown. Lines headed by an entry give the natural chain unless they say otherwise; changes in a name come on top.
# UniProt P15927: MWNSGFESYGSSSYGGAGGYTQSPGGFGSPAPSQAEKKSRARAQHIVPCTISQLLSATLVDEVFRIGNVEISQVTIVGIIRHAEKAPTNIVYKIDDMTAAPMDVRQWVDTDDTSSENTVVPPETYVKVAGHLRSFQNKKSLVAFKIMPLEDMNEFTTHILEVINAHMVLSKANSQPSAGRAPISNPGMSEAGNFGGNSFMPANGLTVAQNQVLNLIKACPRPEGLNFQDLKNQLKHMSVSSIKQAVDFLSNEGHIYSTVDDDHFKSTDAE
# The list shows a part of the results.
# Biological target: RPA2_P15927_49_AQHIVPCTISQLLSATLVDEVFR (UniProt P15927)
# Experiment: probe-labelled cysteine peptide fold change vs DMSO (competition) (log2 fold change); higher = less target engagement (more negative = stronger competition)
# Details: THP-1, incubation time: 4 h
# 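Further: competitive profiling in live THP-1 cells: cysteine peptides tagged with an iodoacetamide desthiobiotin (IA-DTB) probe, intensity after compound treatment relative to DMSO-treated cells.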
structure (smiles),measurement,setting,value
Cc1cc(C(=O)N2CCCN(C(=O)CCl)CC2)ccc1-c1ccccc1 [compound 10],probe-labelled cysteine peptide fold change,10 µM,0.159
same,probe-labelled cysteine peptide fold change,50 µM,0.205
